# Results from PubChem BioAssay AID662 (National Center for Advancing Translational Sciences (NCATS), 2007).
# This is one part of the list. Further columns of the screen follow, without active or inactive calls. Most of these compounds were active or inconclusive in the main read-out, so they are no random draw. Words in brackets tell the shape of the fitted curve; partial curves, single points and poor fits give uncertain potencies.
# Assay: Cell signaling CRE-BLA (Fsk stim)
# Conditions: CHO CRE-bla reporter (cAMP response element driving beta-lactamase), forskolin EC10, beta-lactamase ratio; measured here: 460 nm blue channel
# How it was run: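 qHTS titration format; CRE-bla CHO reporter; stimulus EC10 NKH 477, a water-soluble forskolin. Read: CCF4 460/530 nm ratio. Potency expressed as AC50 for activators or inhibitors.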
row,Structure (SMILES),AC50
1,O=C(NCc1ccccc1)c1cc(S(=O)(=O)N2CCOCC2)ccc1F,"0.126 µM [falling, partial curve, poor fit]"
2,C=CCn1c2ccccc2c2nnc(SCc3ccc4nonc4c3)nc21,"1.58 µM [rising, full curve]"
3,CCOc1ccc(-n2c(COc3ccccc3)nnc2SCC(N)=O)cc1,"15.8 µM [rising, partial curve, poor fit]"
4,Cn1c(CCCNC(=O)c2ccccc2)nc2ccccc21,"2.51 µM [falling, single point]"
5,CCOC(=O)CC(=O)CSc1nnc2c(n1)[nH]c1ccccc12,"12.6 µM [rising, single point]"
6,COC(=O)c1cc(Br)c(=O)n(Cc2ccc(OC)c(OC)c2)c1,"15.8 µM [rising, single point]"
7,c1ccc(Cn2c(-c3ccco3)nc3nc4ccccc4nc32)cc1,"12.6 µM [rising, partial curve]"
8,CS(=O)(=O)N1CCCC(C(=O)NCCCN2CCN(Cc3ccccc3)CC2)C1 (stereo not drawn),"2 µM [rising, partial curve]"
9,COC(=O)c1ccc(NC(=O)Nc2ccc(F)cc2)cc1,"5.01 µM [falling, single point]"
10,CCOc1cc(S(=O)(=O)N2CCOCC2)ccc1F,"12.6 µM [falling, partial curve]"
11,COc1cccc(Nc2nnc(SCn3nnc4ccccc4c3=O)s2)c1,"20 µM [rising, single point]"
12,CN(C)c1ncc2ncc(=O)n(CCc3ccccc3)c2n1,"25.1 µM [rising, single point]"
13,COc1ccc(CNc2nc(-c3ccccc3OC)nc3ccccc23)c(OC)c1,"10 µM [rising, partial curve]"
14,COc1cccc(Nc2ncc3nc(CCc4ccccc4)c(=O)n(CCC#N)c3n2)c1,"5.01 µM [rising, partial curve]"
15,COc1ccc(C(C)=O)cc1CN1C(=O)C(C)N(c2ccc(C)cc2)C1=O (stereo not drawn),"5.01 µM [falling, single point]"
16,Cn1c(=O)n(Cc2ccc(F)cc2)c(=O)c2c1nc1n2CCCN1C1CCCCC1,"10 µM [rising, partial curve]"
17,COc1ccccc1-c1cc(NCc2ccccc2)ncn1,"5.01 µM [rising, single point]"
18,O=C(O)c1cc([N+](=O)[O-])ccc1NCCCc1ccccc1,"31.6 µM [falling, single point]"
19,COC(=O)c1ccc(CSc2nc3c(cnn3-c3ccc(F)cc3)c(=O)[nH]2)o1,"1.26 µM [rising, full curve]"
20,O=c1c2cccnc2[nH]c(=S)n1CCCN1CCN(c2ccccc2F)CC1,"0.316 µM [rising, single point]"
21,COc1ccccc1NC(=O)CN1C(=O)C2(OCCCO2)c2ccccc21,"15.8 µM [falling, partial curve, poor fit]"
22,COc1ccc(N(C)S(=O)(=O)c2cccc3cccnc23)c(OC)c1,"3.98 µM [falling, partial curve, poor fit]"

row,Structure (SMILES),AC50
1,COc1cccc(NC(=O)CN2C(=O)C3(OCCCO3)c3ccccc32)c1,"3.16 µM [falling, full curve]"
2,CCOC(=O)C1=C(C)NC2=C(C(=O)CC(C)(C)C2)C1c1cccc(C)n1 (stereo not drawn),"10 µM [rising, single point]"
3,COc1cccc(OC)c1C(=O)N1CCN(Cc2ccccc2C)CC1,"0.794 µM [rising, partial curve]"
4,COc1cc2c(cc1OC)[C@@H]1C(=O)c3ccc4c(c3O[C@@H]1CO2)C=CC(C)(C)O4,"20 µM [falling, partial curve, poor fit]"
5,Cn1c(C(=O)NCCCN2CCCCCC2)cc2c(=O)n(C)c3ccccc3c21,"10 µM [rising, partial curve]"
6,COC(=O)c1cc(=O)n(Cc2cccs2)c(=NCc2cccs2)s1,"0.00398 µM [falling, full curve, poor fit]"
7,CSc1nsc(SCC(=O)N2CCCc3ccccc32)n1,"25.1 µM [falling, single point]"
8,O=c1c(CCc2ccccc2)nc2cncnc2n1C1CC1,"0.251 µM [rising, full curve]"
9,CCOc1ccc(-c2nc(CSc3nncs3)cs2)cc1OC,"3.98 µM [rising, partial curve]"
10,CN=C1c2ccccc2CN1c1cccc(C(=O)OC)c1,"12.6 µM [rising, single point]"
11,CC(Oc1ccccc1)C(=O)N1CCCc2ccccc21 (stereo not drawn),"1 µM [falling, partial curve, poor fit]"
12,O=C1CC(c2ccc(F)cc2)Cc2nc(N3CCN(c4ccccc4)CC3)ncc21 (stereo not drawn),"10 µM [falling, single point]"
13,COc1cc(OC)cc(C(C(=O)NCc2ccccc2)N(Cc2ccco2)C(=O)c2ccno2)c1 (stereo not drawn),"3.98 µM [falling, single point]"
14,O=C(Cn1cnc2c(nnn2Cc2ccc(Cl)cc2)c1=O)N1CCCc2ccccc21,"2.51 µM [rising, single point]"
15,CCOc1ccc2nc(C)cc(C(=O)O)c2c1,"0.2 µM [falling, full curve]"
16,COc1ccc(OC)c(C2C(C(=O)c3cccs3)=C(O)C(=O)N2CCN(C)C)c1 (stereo not drawn),"1.26 µM [falling, partial curve]"
17,CNC(=O)c1[nH]cnc1C(=O)Nc1cccc(OC)c1,"12.6 µM [rising, partial curve]"
18,c1ccc(-c2ccc(-c3nc(-c4ccccn4)no3)cc2)cc1,"25.1 µM [falling, single point]"
19,CN(C)c1ncc2nc(-c3cccs3)c(=O)n(Cc3cccs3)c2n1,"1 µM [rising, full curve]"
20,Cc1ccc(C)n1-n1c(C)nc2scc(-c3cccs3)c2c1=O,"12.6 µM [rising, partial curve]"
21,Cc1csc(NC(=O)C2CCCN(S(=O)(=O)c3ccc(Br)s3)C2)n1 (stereo not drawn),"31.6 µM [falling, single point]"

# Shown with tabs: 3 of the compounds above.
row	Structure (SMILES)	AC50
7	CSc1nsc(SCC(=O)N2CCCc3ccccc32)n1	25.1 µM [falling, single point]
8	O=c1c(CCc2ccccc2)nc2cncnc2n1C1CC1	0.251 µM [rising, full curve]
9	CCOc1ccc(-c2nc(CSc3nncs3)cs2)cc1OC	3.98 µM [rising, partial curve]
